Our source for the binding values is article PMC5133968.

Amino acid sequences for entries named in this document (tags omitted). A change or cut given only in a name is not applied to a line headed by its entry.
UniProt Q16513: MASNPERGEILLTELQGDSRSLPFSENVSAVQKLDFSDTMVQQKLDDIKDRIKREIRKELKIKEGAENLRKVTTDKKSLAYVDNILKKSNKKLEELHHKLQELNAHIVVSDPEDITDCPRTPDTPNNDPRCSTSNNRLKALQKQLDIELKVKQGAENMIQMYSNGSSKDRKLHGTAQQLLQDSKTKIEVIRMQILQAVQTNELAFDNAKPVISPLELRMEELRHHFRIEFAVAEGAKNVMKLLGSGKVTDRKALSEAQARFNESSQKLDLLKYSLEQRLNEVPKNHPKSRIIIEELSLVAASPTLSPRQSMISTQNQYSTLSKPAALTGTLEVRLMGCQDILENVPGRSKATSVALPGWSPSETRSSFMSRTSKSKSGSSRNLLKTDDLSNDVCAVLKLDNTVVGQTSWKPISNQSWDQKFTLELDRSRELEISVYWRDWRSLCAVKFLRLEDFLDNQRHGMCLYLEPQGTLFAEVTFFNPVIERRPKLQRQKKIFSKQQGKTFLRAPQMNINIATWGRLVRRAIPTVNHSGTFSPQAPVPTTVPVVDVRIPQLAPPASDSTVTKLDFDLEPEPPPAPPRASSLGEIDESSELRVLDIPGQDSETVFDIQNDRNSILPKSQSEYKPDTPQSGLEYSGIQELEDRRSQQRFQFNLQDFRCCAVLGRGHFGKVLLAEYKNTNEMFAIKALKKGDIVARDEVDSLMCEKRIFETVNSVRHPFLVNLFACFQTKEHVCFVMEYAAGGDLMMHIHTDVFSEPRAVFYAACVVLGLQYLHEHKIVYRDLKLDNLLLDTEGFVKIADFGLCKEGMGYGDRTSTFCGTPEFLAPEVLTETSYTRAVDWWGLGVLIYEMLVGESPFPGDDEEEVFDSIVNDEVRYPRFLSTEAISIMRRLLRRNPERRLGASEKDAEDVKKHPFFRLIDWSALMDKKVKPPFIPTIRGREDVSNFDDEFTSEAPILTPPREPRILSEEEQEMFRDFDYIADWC

These are yes or no findings as the source states them, for the method shown. Binding seen in cells or lysates may run through a third protein. Some entries that bind do so weakly or less than the wild type. For some of these results: Tags and fused reporters may be left off the sequences shown.

Experiment [1] has as its target T1, Cdo (cell adhesion molecule-related downregulated by oncogene), full length (rat) (UniProt O35158).
T1 sequence: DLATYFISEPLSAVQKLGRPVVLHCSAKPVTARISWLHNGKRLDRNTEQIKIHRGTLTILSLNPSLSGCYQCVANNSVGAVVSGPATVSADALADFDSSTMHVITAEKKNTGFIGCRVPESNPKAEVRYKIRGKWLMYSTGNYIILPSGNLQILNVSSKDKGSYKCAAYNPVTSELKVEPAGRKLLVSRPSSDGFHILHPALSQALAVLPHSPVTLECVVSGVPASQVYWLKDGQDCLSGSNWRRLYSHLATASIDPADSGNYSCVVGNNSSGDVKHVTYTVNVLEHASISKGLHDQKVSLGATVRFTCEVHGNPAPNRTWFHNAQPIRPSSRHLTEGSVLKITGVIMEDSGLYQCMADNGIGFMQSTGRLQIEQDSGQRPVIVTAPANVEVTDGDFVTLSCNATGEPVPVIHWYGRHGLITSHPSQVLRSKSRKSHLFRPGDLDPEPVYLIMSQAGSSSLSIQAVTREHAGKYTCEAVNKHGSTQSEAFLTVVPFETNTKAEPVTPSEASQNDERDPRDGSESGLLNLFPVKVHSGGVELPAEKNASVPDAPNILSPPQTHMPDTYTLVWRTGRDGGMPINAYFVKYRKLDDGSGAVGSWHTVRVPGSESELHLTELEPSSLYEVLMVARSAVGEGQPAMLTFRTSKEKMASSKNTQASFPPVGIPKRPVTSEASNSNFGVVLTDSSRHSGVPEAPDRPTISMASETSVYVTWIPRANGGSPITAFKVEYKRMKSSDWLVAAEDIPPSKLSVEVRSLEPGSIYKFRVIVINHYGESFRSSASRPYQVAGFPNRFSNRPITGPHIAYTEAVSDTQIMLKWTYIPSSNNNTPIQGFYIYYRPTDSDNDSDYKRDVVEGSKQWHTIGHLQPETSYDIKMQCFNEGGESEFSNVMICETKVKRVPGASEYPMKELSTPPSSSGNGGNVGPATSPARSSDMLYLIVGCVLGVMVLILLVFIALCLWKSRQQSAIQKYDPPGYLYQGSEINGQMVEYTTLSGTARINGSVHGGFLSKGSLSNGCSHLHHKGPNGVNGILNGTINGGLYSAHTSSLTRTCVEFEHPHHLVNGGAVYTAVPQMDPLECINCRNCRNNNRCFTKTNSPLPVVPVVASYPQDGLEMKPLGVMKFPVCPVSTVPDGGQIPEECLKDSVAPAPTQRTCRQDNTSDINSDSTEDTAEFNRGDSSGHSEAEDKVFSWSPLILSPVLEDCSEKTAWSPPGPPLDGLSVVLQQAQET
Briefly: co-IP; 293T cells transiently co-transfected; lysates immunoprecipitated with an antibody to Cdo, blotted for PKN2 or GST (Figures 2a, 2g).

Experiment [2] has as its target T2, APPL1, full-length construct with no tag named (UniProt Q9UKG1).
T2 sequence: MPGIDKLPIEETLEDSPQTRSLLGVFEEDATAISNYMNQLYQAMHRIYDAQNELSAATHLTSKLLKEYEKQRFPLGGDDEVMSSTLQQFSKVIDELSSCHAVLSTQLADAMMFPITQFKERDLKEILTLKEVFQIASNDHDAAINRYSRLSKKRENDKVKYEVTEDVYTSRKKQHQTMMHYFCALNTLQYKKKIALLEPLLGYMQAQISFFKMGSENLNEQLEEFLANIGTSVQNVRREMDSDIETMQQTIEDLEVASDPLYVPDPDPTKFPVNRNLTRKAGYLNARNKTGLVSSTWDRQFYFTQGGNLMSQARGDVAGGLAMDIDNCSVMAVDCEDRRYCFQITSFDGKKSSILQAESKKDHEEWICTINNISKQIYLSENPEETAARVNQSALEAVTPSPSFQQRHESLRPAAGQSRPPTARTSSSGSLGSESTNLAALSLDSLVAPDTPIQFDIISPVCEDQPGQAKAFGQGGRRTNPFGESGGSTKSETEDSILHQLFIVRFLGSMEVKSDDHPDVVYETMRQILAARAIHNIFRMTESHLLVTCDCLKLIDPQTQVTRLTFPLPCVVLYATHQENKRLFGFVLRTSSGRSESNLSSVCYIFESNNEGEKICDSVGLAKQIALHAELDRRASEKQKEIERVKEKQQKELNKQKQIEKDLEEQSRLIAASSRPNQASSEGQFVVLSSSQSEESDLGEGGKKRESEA
Briefly: co-IP; 293T cells transiently co-transfected with APPL1 and GST-tagged PKN2 constructs; lysates immunoprecipitated with APPL1 antibody, blotted for GST (Figure 5a).

Experiment [3] concerns the target GST-tagged full-length PKN2 (AA1-984) (human) (UniProt Q16513). Briefly: co-IP; 293T cells transiently co-transfected; lysates immunoprecipitated with PKN2 antibodies, blotted for Cdo (Figure 2e) or HA (Figure 5b).
Experiment [4] addresses PKN2 (protein kinase C-related kinase 2), expression vector with no tag named (human) (UniProt Q16513). Described as above.

Regarding “GST-PKN2/573-984 (from UniProt Q16513 573-984) (domain or fragment)”, the binding result in experiment [1] is given as “binds”; in experiment [2] it was “binds weakly”.
Consider “GST-PKN2/1-507 (from UniProt Q16513 1-507) (domain or fragment)”, for which the binding entry in experiment [1] and in experiment [2] was “no binding” throughout.
For “GST-tagged full-length PKN2 (AA1-984) (from UniProt Q16513 1-984) (enzyme)”, the binding entry in experiment [1] and in experiment [2] was “binds” each time.
“GST-PKN2/839-900 (from UniProt Q16513 839-900) (domain or fragment)”: in experiment [2], the binding result is given as “binds”.

B1: HA-APPL1/1-273 (domain or fragment, UniProt Q9UKG1 1-273)
chain: MPGIDKLPIEETLEDSPQTRSLLGVFEEDATAISNYMNQLYQAMHRIYDAQNELSAATHLTSKLLKEYEKQRFPLGGDDEVMSSTLQQFSKVIDELSSCHAVLSTQLADAMMFPITQFKERDLKEILTLKEVFQIASNDHDAAINRYSRLSKKRENDKVKYEVTEDVYTSRKKQHQTMMHYFCALNTLQYKKKIALLEPLLGYMQAQISFFKMGSENLNEQLEEFLANIGTSVQNVRREMDSDIETMQQTIEDLEVASDPLYVPDPDPTKFPV
As to B1, the binding entry in experiment [3] is reported as “no binding”.

B2: CdoΔ1035-1160 (receptor, UniProt O35158)
chain: DLATYFISEPLSAVQKLGRPVVLHCSAKPVTARISWLHNGKRLDRNTEQIKIHRGTLTILSLNPSLSGCYQCVANNSVGAVVSGPATVSADALADFDSSTMHVITAEKKNTGFIGCRVPESNPKAEVRYKIRGKWLMYSTGNYIILPSGNLQILNVSSKDKGSYKCAAYNPVTSELKVEPAGRKLLVSRPSSDGFHILHPALSQALAVLPHSPVTLECVVSGVPASQVYWLKDGQDCLSGSNWRRLYSHLATASIDPADSGNYSCVVGNNSSGDVKHVTYTVNVLEHASISKGLHDQKVSLGATVRFTCEVHGNPAPNRTWFHNAQPIRPSSRHLTEGSVLKITGVIMEDSGLYQCMADNGIGFMQSTGRLQIEQDSGQRPVIVTAPANVEVTDGDFVTLSCNATGEPVPVIHWYGRHGLITSHPSQVLRSKSRKSHLFRPGDLDPEPVYLIMSQAGSSSLSIQAVTREHAGKYTCEAVNKHGSTQSEAFLTVVPFETNTKAEPVTPSEASQNDERDPRDGSESGLLNLFPVKVHSGGVELPAEKNASVPDAPNILSPPQTHMPDTYTLVWRTGRDGGMPINAYFVKYRKLDDGSGAVGSWHTVRVPGSESELHLTELEPSSLYEVLMVARSAVGEGQPAMLTFRTSKEKMASSKNTQASFPPVGIPKRPVTSEASNSNFGVVLTDSSRHSGVPEAPDRPTISMASETSVYVTWIPRANGGSPITAFKVEYKRMKSSDWLVAAEDIPPSKLSVEVRSLEPGSIYKFRVIVINHYGESFRSSASRPYQVAGFPNRFSNRPITGPHIAYTEAVSDTQIMLKWTYIPSSNNNTPIQGFYIYYRPTDSDNDSDYKRDVVEGSKQWHTIGHLQPETSYDIKMQCFNEGGESEFSNVMICETKVKRVPGASEYPMKELSTPPSSSGNGGNVGPATSPARSSDMLYLIVGCVLGVMVLILLVFIALCLWKSRQQSAIQKYDPPGYLYQGSEINGQMVEYTTLSGTARINGSVHGGFLGQIPEECLKDSVAPAPTQRTCRQDNTSDINSDSTEDTAEFNRGDSSGHSEAEDKVFSWSPLILSPVLEDCSEKTAWSPPGPPLDGLSVVLQQAQET
Turning to B2, the binding result in experiment [4] is reported as “no binding”.

B3: CdoΔ986-1048 (receptor, UniProt O35158)
chain: DLATYFISEPLSAVQKLGRPVVLHCSAKPVTARISWLHNGKRLDRNTEQIKIHRGTLTILSLNPSLSGCYQCVANNSVGAVVSGPATVSADALADFDSSTMHVITAEKKNTGFIGCRVPESNPKAEVRYKIRGKWLMYSTGNYIILPSGNLQILNVSSKDKGSYKCAAYNPVTSELKVEPAGRKLLVSRPSSDGFHILHPALSQALAVLPHSPVTLECVVSGVPASQVYWLKDGQDCLSGSNWRRLYSHLATASIDPADSGNYSCVVGNNSSGDVKHVTYTVNVLEHASISKGLHDQKVSLGATVRFTCEVHGNPAPNRTWFHNAQPIRPSSRHLTEGSVLKITGVIMEDSGLYQCMADNGIGFMQSTGRLQIEQDSGQRPVIVTAPANVEVTDGDFVTLSCNATGEPVPVIHWYGRHGLITSHPSQVLRSKSRKSHLFRPGDLDPEPVYLIMSQAGSSSLSIQAVTREHAGKYTCEAVNKHGSTQSEAFLTVVPFETNTKAEPVTPSEASQNDERDPRDGSESGLLNLFPVKVHSGGVELPAEKNASVPDAPNILSPPQTHMPDTYTLVWRTGRDGGMPINAYFVKYRKLDDGSGAVGSWHTVRVPGSESELHLTELEPSSLYEVLMVARSAVGEGQPAMLTFRTSKEKMASSKNTQASFPPVGIPKRPVTSEASNSNFGVVLTDSSRHSGVPEAPDRPTISMASETSVYVTWIPRANGGSPITAFKVEYKRMKSSDWLVAAEDIPPSKLSVEVRSLEPGSIYKFRVIVINHYGESFRSSASRPYQVAGFPNRFSNRPITGPHIAYTEAVSDTQIMLKWTYIPSSNNNTPIQGFYIYYRPTDSDNDSDYKRDVVEGSKQWHTIGHLQPETSYDIKMQCFNEGGESEFSNVMICETKVKRVPGASEYPMKELSTPPSSSGNGGNVGPATSPARSSDMLYLIVGCVLGVMVLILLVFIALCLKGPNGVNGILNGTINGGLYSAHTSSLTRTCVEFEHPHHLVNGGAVYTAVPQMDPLECINCRNCRNNNRCFTKTNSPLPVVPVVASYPQDGLEMKPLGVMKFPVCPVSTVPDGGQIPEECLKDSVAPAPTQRTCRQDNTSDINSDSTEDTAEFNRGDSSGHSEAEDKVFSWSPLILSPVLEDCSEKTAWSPPGPPLDGLSVVLQQAQET
For the molecule B3, the binding result in experiment [4] was “no binding”.
